# From the supplement of paper PMC8728848
# This is one part of the list.
# Experiments:
# Assay in all cases: glycan array binding signal (z-score within array); higher = stronger binding
# Details in all cases: glycan notation: IUPAC condensed, linker removed
# [1] = target: Gal(b1-4)GlcNAc(b1-2)Man(a1-6)[Man(a1-3)]Man(b1-4)GlcNAc(b1-4)GlcNAc
# Outline: (§1)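 The binding signal is a Z-score computed within each array and averaged over linkers. Arrays of the same protein sequence at different concentrations or buffers were also averaged together. Data originate from 3228 arrays in the Consortium for Functional Glycomics database, kept only where the protein sequence was available.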
# [2] = target: Gal(b1-4)GlcNAc(b1-2)[Gal(b1-4)GlcNAc(b1-4)]Man(a1-3)[Gal(b1-4)GlcNAc(b1-2)Man(a1-6)]Man(b1-4)GlcNAc(b1-4)GlcNAc
# Outline: as §1
# [3] = target: Gal(b1-4)GlcNAc(b1-2)[Gal(b1-4)GlcNAc(b1-4)]Man(a1-3)[Gal(b1-4)GlcNAc(b1-2)[Gal(b1-4)GlcNAc(b1-6)]Man(a1-6)]Man(b1-4)GlcNAc(b1-4)GlcNAc
# Outline: as §1
# [4] = target: Gal(b1-4)GlcNAc(b1-2)[Gal(b1-4)GlcNAc(b1-4)]Man(a1-3)[GlcNAc(b1-4)][Gal(b1-4)GlcNAc(b1-2)Man(a1-6)]Man(b1-4)GlcNAc(b1-4)GlcNAc
# Outline: as §1
# [5] = target: Gal(b1-4)GlcNAc(b1-2)[Gal(b1-4)GlcNAc(b1-4)]Man(a1-3)[GlcNAc(b1-4)][Gal(b1-4)GlcNAc(b1-2)[Gal(b1-4)GlcNAc(b1-6)]Man(a1-6)]Man(b1-4)GlcNAc(b1-4)GlcNAc
# Outline: as §1
# [6] = target: Gal(b1-4)GlcNAc(b1-2)[Gal(b1-4)GlcNAc(b1-6)]Man(a1-6)[Gal(b1-4)GlcNAc(b1-2)Man(a1-3)]Man(b1-4)GlcNAc(b1-4)GlcNAc
# Outline: as §1
# [7] = target: Gal(b1-4)GlcNAc(b1-2)[Gal(b1-4)GlcNAc(b1-6)]Man(a1-6)[Gal(b1-4)GlcNAc(b1-2)Man(a1-3)]Man(b1-4)GlcNAc(b1-4)[Fuc(a1-6)]GlcNAc
# Outline: as §1
# [8] = target: Gal(b1-4)GlcNAc(b1-2)[Gal(b1-4)GlcNAc(b1-6)]Man(a1-6)[GlcNAc(b1-4)][Gal(b1-4)GlcNAc(b1-2)Man(a1-3)]Man(b1-4)GlcNAc(b1-4)GlcNAc
# Outline: as §1
# [9] = target: Gal(b1-4)GlcNAc(b1-2)[Gal(b1-4)GlcNAc(b1-6)]Man(a1-6)[GlcNAc(b1-4)][Gal(b1-4)GlcNAc(b1-2)[Gal(b1-4)GlcNAc(b1-4)]Man(a1-3)]Man(b1-4)GlcNAc(b1-4)[Fuc(a1-6)]GlcNAc
# Outline: as §1
# [10] = target: Gal(b1-4)GlcNAc(b1-3)Gal(b1-3)GalNAc
# Outline: as §1
# [11] = target: Gal(b1-4)GlcNAc(b1-3)Gal(b1-3)GlcNAc
# Outline: as §1
# [12] = target: Gal(b1-4)GlcNAc(b1-3)Gal(b1-4)Glc
# Outline: as §1
# [13] = target: Gal(b1-4)GlcNAc(b1-3)Gal(b1-4)GlcNAc
# Outline: as §1
# [14] = target: Gal(b1-4)GlcNAc(b1-3)Gal(b1-4)GlcNAc(b1-2)Man(a1-3)[Gal(b1-4)GlcNAc(b1-3)Gal(b1-4)GlcNAc(b1-2)Man(a1-6)]Man(b1-4)GlcNAc(b1-4)GlcNAc
# Outline: as §1
# [15] = target: Gal(b1-4)GlcNAc(b1-3)Gal(b1-4)GlcNAc(b1-2)Man(a1-3)[Gal(b1-4)GlcNAc(b1-3)Gal(b1-4)GlcNAc(b1-2)Man(a1-6)]Man(b1-4)GlcNAc(b1-4)[Fuc(a1-6)]GlcNAc
# Outline: as §1
# [16] = target: Gal(b1-4)GlcNAc(b1-3)Gal(b1-4)GlcNAc(b1-2)[Gal(b1-4)GlcNAc(b1-3)Gal(b1-4)GlcNAc(b1-6)]Man(a1-6)[Gal(b1-4)GlcNAc(b1-3)Gal(b1-4)GlcNAc(b1-2)Man(a1-3)]Man(b1-4)GlcNAc(b1-4)GlcNAc
# Outline: as §1
# [17] = target: Gal(b1-4)GlcNAc(b1-3)Gal(b1-4)GlcNAc(b1-2)[Gal(b1-4)GlcNAc(b1-3)Gal(b1-4)GlcNAc(b1-6)]Man(a1-6)[Gal(b1-4)GlcNAc(b1-3)Gal(b1-4)GlcNAc(b1-2)Man(a1-3)]Man(b1-4)GlcNAc(b1-4)[Fuc(a1-6)]GlcNAc
# Outline: as §1
# [18] = target: Gal(b1-4)GlcNAc(b1-3)Gal(b1-4)GlcNAc(b1-3)Gal(b1-4)GlcNAc
# Outline: as §1
# [19] = target: Gal(b1-4)GlcNAc(b1-3)Gal(b1-4)GlcNAc(b1-3)Gal(b1-4)GlcNAc(b1-2)Man(a1-3)[Gal(b1-4)GlcNAc(b1-3)Gal(b1-4)GlcNAc(b1-3)Gal(b1-4)GlcNAc(b1-2)Man(a1-6)]Man(b1-4)GlcNAc(b1-4)GlcNAc
# Outline: as §1
# [20] = target: Gal(b1-4)GlcNAc(b1-3)Gal(b1-4)GlcNAc(b1-3)Gal(b1-4)GlcNAc(b1-2)Man(a1-3)[Gal(b1-4)GlcNAc(b1-3)Gal(b1-4)GlcNAc(b1-3)Gal(b1-4)GlcNAc(b1-2)Man(a1-6)]Man(b1-4)GlcNAc(b1-4)[Fuc(a1-6)]GlcNAc
# Outline: as §1
# [21] = target: Gal(b1-4)GlcNAc(b1-3)Gal(b1-4)GlcNAc(b1-3)Gal(b1-4)GlcNAc(b1-2)[Gal(b1-4)GlcNAc(b1-3)Gal(b1-4)GlcNAc(b1-3)Gal(b1-4)GlcNAc(b1-6)]Man(a1-6)[Gal(b1-4)GlcNAc(b1-3)Gal(b1-4)GlcNAc(b1-3)Gal(b1-4)GlcNAc(b1-2)Man(a1-3)]Man(b1-4)GlcNAc(b1-4)[Fuc(a1-6)]GlcNAc
# Outline: as §1
# [22] = target: Gal(b1-4)GlcNAc(b1-3)Gal(b1-4)GlcNAc(b1-3)Gal(b1-4)GlcNAc(b1-3)Gal(b1-4)GlcNAc(b1-2)Man(a1-3)[Gal(b1-4)GlcNAc(b1-3)Gal(b1-4)GlcNAc(b1-3)Gal(b1-4)GlcNAc(b1-3)Gal(b1-4)GlcNAc(b1-2)Man(a1-6)]Man(b1-4)GlcNAc(b1-4)GlcNAc
# Outline: as §1
# [23] = target: Gal(b1-4)GlcNAc(b1-3)Gal(b1-4)GlcNAc(b1-3)Gal(b1-4)GlcNAc(b1-3)Gal(b1-4)GlcNAc(b1-2)Man(a1-3)[Gal(b1-4)GlcNAc(b1-3)Gal(b1-4)GlcNAc(b1-3)Gal(b1-4)GlcNAc(b1-3)Gal(b1-4)GlcNAc(b1-2)Man(a1-6)]Man(b1-4)GlcNAc(b1-4)[Fuc(a1-6)]GlcNAc
# Outline: as §1
# [24] = target: Gal(b1-4)GlcNAc(b1-3)Gal(b1-4)GlcNAc(b1-3)Gal(b1-4)GlcNAc(b1-3)Gal(b1-4)GlcNAc(b1-2)[Gal(b1-4)GlcNAc(b1-3)Gal(b1-4)GlcNAc(b1-3)Gal(b1-4)GlcNAc(b1-3)Gal(b1-4)GlcNAc(b1-6)]Man(a1-6)[Gal(b1-4)GlcNAc(b1-3)Gal(b1-4)GlcNAc(b1-3)Gal(b1-4)GlcNAc(b1-3)Gal(b1-4)GlcNAc(b1-2)Man(a1-3)]Man(b1-4)GlcNAc(b1-4)[Fuc(a1-6)]GlcNAc
# Outline: as §1
# [25] = target: Gal(b1-4)GlcNAc(b1-3)Gal(b1-4)GlcNAc(b1-3)Gal(b1-4)GlcNAc(b1-3)Gal(b1-4)GlcNAc(b1-3)Gal(b1-4)GlcNAc(b1-2)Man(a1-3)[Gal(b1-4)GlcNAc(b1-3)Gal(b1-4)GlcNAc(b1-3)Gal(b1-4)GlcNAc(b1-3)Gal(b1-4)GlcNAc(b1-3)Gal(b1-4)GlcNAc(b1-2)Man(a1-6)]Man(b1-4)GlcNAc(b1-4)GlcNAc
# Outline: as §1
# [26] = target: Gal(b1-4)GlcNAc(b1-3)Gal(b1-4)GlcNAc(b1-3)Gal(b1-4)GlcNAc(b1-3)Gal(b1-4)GlcNAc(b1-3)Gal(b1-4)GlcNAc(b1-2)Man(a1-3)[Gal(b1-4)GlcNAc(b1-3)Gal(b1-4)GlcNAc(b1-3)Gal(b1-4)GlcNAc(b1-3)Gal(b1-4)GlcNAc(b1-3)Gal(b1-4)GlcNAc(b1-2)Man(a1-6)]Man(b1-4)GlcNAc(b1-4)[Fuc(a1-6)]GlcNAc
# Outline: as §1
# [27] = target: Gal(b1-4)GlcNAc(b1-3)Gal(b1-4)GlcNAc(b1-3)Gal(b1-4)GlcNAc(b1-3)Gal(b1-4)GlcNAc(b1-3)Gal(b1-4)GlcNAc(b1-2)[Gal(b1-4)GlcNAc(b1-3)Gal(b1-4)GlcNAc(b1-3)Gal(b1-4)GlcNAc(b1-3)Gal(b1-4)GlcNAc(b1-3)Gal(b1-4)GlcNAc(b1-6)]Man(a1-6)[Gal(b1-4)GlcNAc(b1-3)Gal(b1-4)GlcNAc(b1-3)Gal(b1-4)GlcNAc(b1-3)Gal(b1-4)GlcNAc(b1-3)Gal(b1-4)GlcNAc(b1-2)Man(a1-3)]Man(b1-4)GlcNAc(b1-4)[Fuc(a1-6)]GlcNAc
# Outline: as §1
# [28] = target: Gal(b1-4)GlcNAc(b1-3)Gal(b1-4)GlcNAc(b1-3)Gal(b1-4)GlcNAc(b1-3)Gal(b1-4)GlcNAc(b1-3)Gal(b1-4)GlcNAc(b1-3)Gal(b1-4)GlcNAc(b1-2)Man(a1-3)[Gal(b1-4)GlcNAc(b1-3)Gal(b1-4)GlcNAc(b1-3)Gal(b1-4)GlcNAc(b1-3)Gal(b1-4)GlcNAc(b1-3)Gal(b1-4)GlcNAc(b1-3)Gal(b1-4)GlcNAc(b1-2)Man(a1-6)]Man(b1-4)GlcNAc(b1-4)GlcNAc
# Outline: as §1
# [29] = target: Gal(b1-4)GlcNAc(b1-3)Gal(b1-4)GlcNAc(b1-3)GalNAc
# Outline: as §1
# [30] = target: Gal(b1-4)GlcNAc(b1-3)Gal(b1-4)GlcNAc(b1-3)[Gal(b1-4)GlcNAc(b1-3)Gal(b1-4)GlcNAc(b1-6)]GalNAc
# Outline: as §1
# [31] = target: Gal(b1-4)GlcNAc(b1-3)Gal(b1-4)GlcNAc(b1-6)[Gal(b1-3)]GalNAc
# Outline: as §1
# [32] = target: Gal(b1-4)GlcNAc(b1-3)Gal(b1-4)[Fuc(a1-3)]GlcNAc(b1-3)Gal(b1-4)[Fuc(a1-3)]GlcNAc
# Outline: as §1
# [33] = target: Gal(b1-4)GlcNAc(b1-3)GalNAc
# Outline: as §1
# [34] = target: Gal(b1-4)GlcNAc(b1-3)[Fuc(a1-3)GlcNAc(b1-6)]Gal(b1-4)Glc
# Outline: as §1
# [35] = target: Gal(b1-4)GlcNAc(b1-3)[Gal(b1-4)GlcNAc(b1-6)]Gal(b1-4)GlcNAc
# Outline: as §1
# [36] = target: Gal(b1-4)GlcNAc(b1-3)[GlcNAc(b1-6)]Gal(b1-4)GlcNAc
# Outline: as §1
# [37] = target: Gal(b1-4)GlcNAc(b1-6)Gal(b1-4)GlcNAc
# Outline: as §1
binder,measurement,setting,value
ArathEULS3 TAP (Arabidopsis thaliana) (protein) IDENLYFQGGSMDEKTTGWRGGHVVEGLAGELEQLRARLEHHPQGQREPGGGGSLEITSLYKKAGFMEHHHQHHRHHQRDDGEDDRQSFGVPPPHVDAPPQPHGLYQSQPHFDPYAPTPQAPAPYRSETQFEPHAPPPYRSEPYFETPAPPPSFGHVSHVGHQSPNESYPPEHHRYGGYQQPSNSLLESHGDHSGVTHVAHHSSNQPQSSSGVYHKPDENRLPDNLAGLAGRATVKVYSKAEPNYNLTIRDGKVILAPADPSDEAQHWYKDEKYSTKVKDADGHPCFALVNKATGEAMKHSVGATHPVHLIRYVPDKLDESVLWTESKDFGDGYRTIRMVNNTRLNVDAYHGDSKSGGVRDGTTIVLWDWNKGDNQLWKIFPF,glycan array binding signal (z-score),[1],-0.463
same,glycan array binding signal (z-score),[2],1.09
same,glycan array binding signal (z-score),[3],-0.621
same,glycan array binding signal (z-score),[4],-1.15
same,glycan array binding signal (z-score),[5],-1.11
same,glycan array binding signal (z-score),[6],1.52
same,glycan array binding signal (z-score),[7],0.941
same,glycan array binding signal (z-score),[8],-0.08
same,glycan array binding signal (z-score),[9],-0.876
same,glycan array binding signal (z-score),[10],-1.84
same,glycan array binding signal (z-score),[11],-0.688
same,glycan array binding signal (z-score),[12],-0.967
same,glycan array binding signal (z-score),[13],-1.63
same,glycan array binding signal (z-score),[14],0.323
same,glycan array binding signal (z-score),[15],0.22
same,glycan array binding signal (z-score),[16],-0.575
same,glycan array binding signal (z-score),[17],1.91
same,glycan array binding signal (z-score),[18],0.391
same,glycan array binding signal (z-score),[19],-0.371
same,glycan array binding signal (z-score),[20],1.89
same,glycan array binding signal (z-score),[21],1.18
same,glycan array binding signal (z-score),[22],0.564
same,glycan array binding signal (z-score),[23],1.27
same,glycan array binding signal (z-score),[24],-0.314
same,glycan array binding signal (z-score),[25],1.57
same,glycan array binding signal (z-score),[26],0.214
same,glycan array binding signal (z-score),[27],0.779
same,glycan array binding signal (z-score),[28],-0.5
same,glycan array binding signal (z-score),[29],0.308
same,glycan array binding signal (z-score),[30],0.844
same,glycan array binding signal (z-score),[31],0.613
same,glycan array binding signal (z-score),[32],0.668
same,glycan array binding signal (z-score),[33],-0.612
same,glycan array binding signal (z-score),[34],-0.792
same,glycan array binding signal (z-score),[35],0.914
same,glycan array binding signal (z-score),[36],-1.21
same,glycan array binding signal (z-score),[37],1.18
